Taken from: PubChem BioAssay AID652272 (Drosophila RNAi Screening Center, 2013)
In all, the deposit lists about 21,000 reagents; this is a random part of those that have a named target and a result. Over the whole deposit, 503 (2.4%) got an active call. 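Raw plate light values, not normalised; calls rest on replicate z-scores that were not deposited; hits include reporter decreases as well as increases.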 A plus sign joins genes that one reagent is predicted to hit. The record does not give: the amount of reagent, the time to read-out.

Aim: 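Genome-wide knock-down search for components of Hedgehog signalling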 (primary screen)
Cell system: Drosophila clone 8 (Cl8) cells
Knock-down reagent: long dsRNA against Drosophila genes
Measured: 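Plate reader light from a firefly reporter under a ptc promoter fragment that responds to Hedgehog, with Renilla light as transfection reference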
Reading the numbers: firefly Hh reporter signal: higher = more ptc reporter light; Renilla reference signal: higher = more Renilla control light
Rule for the call: 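Called a hit if the two-replicate mean z-score lies below -2 or above +3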
Meaning of the calls: active = hit: reporter lowered or raised; inactive = not a hit

The first 2 records as a preview:
CG13937 [DRSC08406]
- firefly Hh reporter signal, replicate 1: 6.17e5
- firefly Hh reporter signal, replicate 2: 1.20e5
- Renilla reference signal, replicate 1: 5509
- Renilla reference signal, replicate 2: 5509
- Outcome: inactive

Ugt303B2 (UDP-glycosyltransferase family 303 member B2) [DRSC14198]
- firefly Hh reporter signal, replicate 1: 9.40e5
- firefly Hh reporter signal, replicate 2: 1.55e5
- Renilla reference signal, replicate 1: 50226
- Renilla reference signal, replicate 2: 3277
- Outcome: inactive

The list itself, repeating the preview:
CG13937 [DRSC08406]
- firefly Hh reporter signal, replicate 1: 6.17e5
- firefly Hh reporter signal, replicate 2: 1.20e5
- Renilla reference signal, replicate 1: 5509
- Renilla reference signal, replicate 2: 5509
- Outcome: inactive

Ugt303B2 (UDP-glycosyltransferase family 303 member B2) [DRSC14198]
- firefly Hh reporter signal, replicate 1: 9.40e5
- firefly Hh reporter signal, replicate 2: 1.55e5
- Renilla reference signal, replicate 1: 50226
- Renilla reference signal, replicate 2: 3277
- Outcome: inactive

key (kenny) [DRSC04285]
- firefly Hh reporter signal, replicate 1: 1.32e5
- firefly Hh reporter signal, replicate 2: 1.03e5
- Renilla reference signal, replicate 1: 4996
- Renilla reference signal, replicate 2: 2381
- Outcome: inactive

UQCR-14 (Ubiquinol-cytochrome c reductase 14 kDa subunit) [DRSC19870]
- firefly Hh reporter signal, replicate 1: 1.29e5
- firefly Hh reporter signal, replicate 2: 3.74e5
- Renilla reference signal, replicate 1: 4038
- Renilla reference signal, replicate 2: 12220
- Outcome: inactive

CG11857 [DRSC14411]
- firefly Hh reporter signal, replicate 1: 4.38e5
- firefly Hh reporter signal, replicate 2: 74805
- Renilla reference signal, replicate 1: 23953
- Renilla reference signal, replicate 2: 2277
- Outcome: inactive

Cp7Fa (Chorion protein a at 7F) [DRSC18032]
- firefly Hh reporter signal, replicate 1: 68885
- firefly Hh reporter signal, replicate 2: 3.38e5
- Renilla reference signal, replicate 1: 1914
- Renilla reference signal, replicate 2: 12631
- Outcome: inactive

Cp7Fa (Chorion protein a at 7F) [DRSC18033]
- firefly Hh reporter signal, replicate 1: 50336
- firefly Hh reporter signal, replicate 2: 1.72e5
- Renilla reference signal, replicate 1: 1728
- Renilla reference signal, replicate 2: 8347
- Outcome: inactive

Ide (Insulin degrading metalloproteinase) [DRSC11867]
- firefly Hh reporter signal, replicate 1: 85808
- firefly Hh reporter signal, replicate 2: 76247
- Renilla reference signal, replicate 1: 3482
- Renilla reference signal, replicate 2: 3064
- Outcome: inactive

cac (cacophony) [DRSC19743]
- firefly Hh reporter signal, replicate 1: 81542
- firefly Hh reporter signal, replicate 2: 2.65e5
- Renilla reference signal, replicate 1: 2365
- Renilla reference signal, replicate 2: 9228
- Outcome: inactive

cac (cacophony) [DRSC20354]
- firefly Hh reporter signal, replicate 1: 88042
- firefly Hh reporter signal, replicate 2: 69866
- Renilla reference signal, replicate 1: 2032
- Renilla reference signal, replicate 2: 1812
- Outcome: inactive

Nipped-B [DRSC07815]
- firefly Hh reporter signal, replicate 1: 68368
- firefly Hh reporter signal, replicate 2: 43597
- Renilla reference signal, replicate 1: 2411
- Renilla reference signal, replicate 2: 2577
- Outcome: inactive

CR13656 (pseudo) [DRSC13705]
- firefly Hh reporter signal, replicate 1: 44754
- firefly Hh reporter signal, replicate 2: 2.16e5
- Renilla reference signal, replicate 1: 11289
- Renilla reference signal, replicate 2: 4496
- Outcome: inactive

CR13656 (pseudo) [DRSC14656]
- firefly Hh reporter signal, replicate 1: 4.99e5
- firefly Hh reporter signal, replicate 2: 99767
- Renilla reference signal, replicate 1: 27210
- Renilla reference signal, replicate 2: 3286
- Outcome: inactive

CG43777 + CG43776 + CG43775 [DRSC04206]
- firefly Hh reporter signal, replicate 1: 76816
- firefly Hh reporter signal, replicate 2: 68112
- Renilla reference signal, replicate 1: 1596
- Renilla reference signal, replicate 2: 5798
- Outcome: inactive

CG2611 [DRSC02710]
- firefly Hh reporter signal, replicate 1: 1.20e5
- firefly Hh reporter signal, replicate 2: 72005
- Renilla reference signal, replicate 1: 4184
- Renilla reference signal, replicate 2: 2809
- Outcome: inactive

Spn42Da (Serpin 42Da) [DRSC05025]
- firefly Hh reporter signal, replicate 1: 96160
- firefly Hh reporter signal, replicate 2: 48594
- Renilla reference signal, replicate 1: 2112
- Renilla reference signal, replicate 2: 4192
- Outcome: inactive

abo (abnormal oocyte) [DRSC02926]
- firefly Hh reporter signal, replicate 1: 1.04e5
- firefly Hh reporter signal, replicate 2: 44731
- Renilla reference signal, replicate 1: 2944
- Renilla reference signal, replicate 2: 4724
- Outcome: inactive

CG13601 [DRSC14604]
- firefly Hh reporter signal, replicate 1: 1.10e5
- firefly Hh reporter signal, replicate 2: 47313
- Renilla reference signal, replicate 1: 4808
- Renilla reference signal, replicate 2: 1251
- Outcome: inactive

sut1 (sugar transporter 1) [DRSC07700]
- firefly Hh reporter signal, replicate 1: 1.08e5
- firefly Hh reporter signal, replicate 2: 71386
- Renilla reference signal, replicate 1: 4272
- Renilla reference signal, replicate 2: 2948
- Outcome: inactive

Sugb (Sugar baby) [DRSC10815]
- firefly Hh reporter signal, replicate 1: 1.09e5
- firefly Hh reporter signal, replicate 2: 65642
- Renilla reference signal, replicate 1: 5154
- Renilla reference signal, replicate 2: 2534
- Outcome: inactive

CG31321 [DRSC13028]
- firefly Hh reporter signal, replicate 1: 49556
- firefly Hh reporter signal, replicate 2: 2.18e5
- Renilla reference signal, replicate 1: 11281
- Renilla reference signal, replicate 2: 4244
- Outcome: inactive

CG14929 + CG14930 [DRSC02412]
- firefly Hh reporter signal, replicate 1: 92749
- firefly Hh reporter signal, replicate 2: 85514
- Renilla reference signal, replicate 1: 2835
- Renilla reference signal, replicate 2: 7242
- Outcome: inactive

MBD-like (Methyl-CpG binding domain protein-like) [DRSC16996]
- firefly Hh reporter signal, replicate 1: 58973
- firefly Hh reporter signal, replicate 2: 81922
- Renilla reference signal, replicate 1: 2331
- Renilla reference signal, replicate 2: 2354
- Outcome: inactive

side-VIII (sidestep VIII) [DRSC05880]
- firefly Hh reporter signal, replicate 1: 1.12e5
- firefly Hh reporter signal, replicate 2: 2.25e5
- Renilla reference signal, replicate 1: 2905
- Renilla reference signal, replicate 2: 9460
- Outcome: inactive

side-VIII (sidestep VIII) [DRSC05883]
- firefly Hh reporter signal, replicate 1: 50080
- firefly Hh reporter signal, replicate 2: 78525
- Renilla reference signal, replicate 1: 459
- Renilla reference signal, replicate 2: 5144
- Outcome: inactive

side-VIII (sidestep VIII) [DRSC06157]
- firefly Hh reporter signal, replicate 1: 99926
- firefly Hh reporter signal, replicate 2: 6.75e5
- firefly Hh reporter signal, replicate 3: 45529
- Renilla reference signal, replicate 1: 2328
- Renilla reference signal, replicate 2: 37256
- Outcome: inactive

eyg (eyegone) [DRSC11344]
- firefly Hh reporter signal, replicate 1: 83481
- firefly Hh reporter signal, replicate 2: 13936
- firefly Hh reporter signal, replicate 3: 7458
- Renilla reference signal, replicate 1: 2887
- Renilla reference signal, replicate 2: 233
- Outcome: inactive
